Test results as given in PubChem BioAssay AID624291 (National Center for Advancing Translational Sciences (NCATS), 2012).
Screen size: about 350,000 compounds; about 220 (0.063%) were called active. The shares of active, inactive and inconclusive entries below differ from those in the screen. Calls come from the whole dose curve; as a rule, active = well fitted activation curve with a large enough effect; inconclusive = small, poorly fitted or top-dose-only effect; inactive = no such curve, though single readings can be large or run the other way. A potency beside an inconclusive call is a rough fit, not a confirmed value.

assay: qHTS for Activators of Integrin-Mediated Alleviation for Muscular Dystrophy; conditions: alpha7betagal myoblasts, beta-gal FDG fluorescence, 48 h; activation: at 38.3 µM (top of the series); note: nearly all actives have a fitted effect of over 60% in size;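 for activation: 100% = response of the positive control SU9516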
Method in brief: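 alpha7betagal+/- myoblasts (passage 13, 250/well) treated 48 h at 37C with compounds at 1:260 dilution of DMSO stock. Lysed, then beta-galactosidase activity read as FDG fluorescence (ex 480/em 540) after 30 min, with pre-read for autofluorescence.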
Potency is the fitted concentration of half-maximal effect.

Compound	Potency	activation
O=C(CC1C(=O)N(c2ccc(F)cc2)C(=O)N1Cc1ccccn1)Nc1ccccc1 (configuration not stated)	inactive	
CN(C)c1ccc(C(c2ccc(N(C)C)cc2)C(O)c2ccccc2)cc1 (configuration not stated)	inactive	
CC1CC(C)CN(CC(=O)NNC(=O)COc2ccc(Cl)cc2)C1 (configuration not stated)		inconclusive: 19.6% [activator]
CCCCNC(=O)CCn1c(=O)c2ccccc2n(Cc2cc(C)ccc2C)c1=O	inconclusive: 5.01 µM [activator, single point]	
CC(C)N(C(=O)CSc1nnc(NC(=O)C2CCC2)s1)C(C)C	inconclusive: 2.82 µM [activator, partial curve, poor fit]	
Cc1ccc(-n2c(C)cc(C(=O)COc3cccnc3[N+](=O)[O-])c2C)cc1	inactive	
CCOC(=O)COc1nc2ccc(Br)cc2c(-c2ccccc2)c1C(C)=O	inconclusive: 28.2 µM [activator, single point]	
O=C(O)CCC(=O)Nc1ccc(C(=O)OCC(=O)c2ccc(Cl)cc2Cl)cc1	inconclusive: 5.01 µM [activator, single point]	
COc1ccc(OC)c(Nc2nnc(C)c(=O)[nH]2)c1	inconclusive: 28.2 µM [activator, partial curve, poor fit]	
NC(=O)N/N=C/c1ccccc1OCc1cccc2ccccc12	inconclusive: 5.01 µM [activator, single point]	
NC(=O)c1sc2nnc(-c3ccccc3)c(-c3ccccc3)c2c1N	inactive	
CC(C)(C)NC(=O)CN(Cc1ccc2c(c1)OCO2)C(=O)CNS(=O)(=O)c1ccccc1	inconclusive: 0.316 µM [activator, full curve, poor fit]	
O=C(N/N=C/c1ccncc1)c1cc([N+](=O)[O-])cc([N+](=O)[O-])c1	inactive	
Cc1ccccc1-n1c(Cc2cccs2)n[nH]c1=S	inconclusive: 31.6 µM [activator, partial curve, poor fit]	
CC1CCCN(C(=O)c2cc(-c3cccs3)nc3ccccc23)C1 (configuration not stated)	inconclusive: 1.41 µM [activator, partial curve, poor fit]	
CC1=C(C(=O)O)N2C(=O)C(NC(=O)c3nn(C)c(C)c3Cl)C2SC1 (configuration not stated)	inconclusive: 2.82 µM [activator, partial curve, poor fit]	
Cc1ccc(NC(=O)c2ccc([N+](=O)[O-])o2)c(C)c1	inactive	
NC(=O)c1c(N)sc2c1CCC2	inactive	
O=C(COc1ccc(Br)cc1)NC1CC1	inconclusive: 3.16 µM [activator, single point]	
O=C(NC(=S)Nc1nc2ccccc2s1)c1ccco1	inactive	
COC(=O)C1CC(=O)N(Cc2ccccc2)C1 (configuration not stated)	inconclusive: 3.98 µM [activator, partial curve, poor fit]	
CCOc1ccc(NC(=S)NNC(=O)c2ccc(Br)cc2)cc1	inactive	
COc1cccc2sc(Nc3nnc(-c4ccccc4Cl)o3)nc12	inactive	
CCc1[nH]nc2c1C1(CCN(C(=O)c3ccccc3)CC1)C(C#N)=C(N)O2	inconclusive: 28.2 µM [activator, single point]	

A second format for some results above:
Compound,Potency,activation
CN(C)c1ccc(C(c2ccc(N(C)C)cc2)C(O)c2ccccc2)cc1 (configuration not stated),inactive,
COc1cccc2sc(Nc3nnc(-c4ccccc4Cl)o3)nc12,inactive,

(further entries)

Compound	Potency	activation
O=c1[nH]ncc2c3ccccc3n(Cc3ccccc3)c12	inactive	
O=C(Cc1ccccc1)NC1CCSc2ccccc21 (configuration not stated)	inconclusive: 1.78 µM [activator, partial curve, poor fit]	
Cc1cccc(NC(=O)CN2CCOCC2)c1C	inconclusive: 5.01 µM [activator, single point]	
O=C(CCC1CCN(C(=O)c2ccco2)CC1)NCc1ccc(F)cc1	inactive	
CCN(CC)C(=O)c1cn(CCC#N)nc1-c1ccc(F)cc1	inconclusive: 3.55 µM [activator, single point]	
CCOc1ccc(N(CC(=O)Nc2ccc(C)c(C)c2)S(=O)(=O)c2c(C)noc2C)cc1	inactive	
CC(=O)Nc1ccc(NC(=O)c2ccc3c(c2)C(=O)N(c2ccccc2C)C3=O)cc1	inconclusive: 20 µM [activator, single point]	
O=C(Nc1ccc(S(=O)(=O)N2CCCCC2)cc1)c1cccnc1Cl	inconclusive: 28.2 µM [activator, single point]	
CSc1ncc(C(=O)Nc2ccc(Br)cn2)c(C)n1	inconclusive: 5.01 µM [activator, single point]	
CN(C)S(=O)(=O)c1cccc(COc2ccccc2C(=O)Nc2ccccc2)c1	inconclusive: 3.55 µM [activator, partial curve, poor fit]	
CCOc1ccc(Nc2nc(Nc3ccc(O)cc3)nc(C)c2[N+](=O)[O-])cc1	inconclusive: 5.01 µM [activator, single point]	
CCN1CCN(CCCNC(=O)Cn2nc(C)n3nc(-c4ccccc4)cc3c2=O)CC1	inactive	
CCOc1ccc(C(CCc2ccccc2)NC(=O)c2ccccc2F)cc1OCC (configuration not stated)	inactive	
CCOCc1nc2nc(Cl)c(Cl)nc2[nH]1	inactive	
CCn1c(C)nc2cc(C(=O)NNC(=O)c3ccc(C)cc3)ccc21	inconclusive: 11.2 µM [activator, partial curve, poor fit]	
COCCC(=O)N1CCC(Oc2ccc(C(=O)N(C)CCCC3CCCC3)cc2)CC1	inconclusive: 5.01 µM [activator, single point]	
O=C(c1ccco1)N1CCN(C(=O)c2cnn(-c3ccc(Cl)cc3)c2C2CCNCC2)CC1	inconclusive: 1.12 µM [activator, single point]	
Cc1cccc(N(CC(=O)N2CCCC2)S(C)(=O)=O)c1	inactive	
COCCn1c(=S)[nH]c2cc(C(=O)NCC3CCCO3)ccc2c1=O (configuration not stated)	inconclusive: 2.51 µM [activator, single point]	
O=C(NC(=S)NCc1cccnc1)c1cc(Br)ccc1Cl	inconclusive: 1 µM [activator, partial curve, poor fit]	
COc1ccc(CC(=S)NCCc2ccccc2)cc1	inconclusive: 5.01 µM [activator, partial curve, poor fit]	
O=S(=O)(c1ccccc1)N1CCC2(CC1)OCCN2S(=O)(=O)c1cccs1	inconclusive: 5.01 µM [activator, single point]	
CCOC(=O)N1CCC(Nc2nc3ccccc3n3nnnc23)CC1	inactive	
COc1ccc(NC(=O)CSc2ccc([N+](=O)[O-])cc2)cc1S(=O)(=O)N1CCOCC1	inactive	

By substructure, the compounds so far containing a cyano group.
Compound	Potency	activation
CCc1[nH]nc2c1C1(CCN(C(=O)c3ccccc3)CC1)C(C#N)=C(N)O2	inconclusive: 28.2 µM [activator, single point]	
CCN(CC)C(=O)c1cn(CCC#N)nc1-c1ccc(F)cc1	inconclusive: 3.55 µM [activator, single point]	

(next part)

Compound	Potency	activation
CCC(C)COC(c1ccccc1)(c1ccccc1)C(Oc1nc(C)cc(C)n1)C(=O)O (configuration not stated)	inconclusive: 0.355 µM [activator, full curve, poor fit]	
CC1=CCC2C(=O)N(c3ccc(C(=O)Nc4ccccc4Cl)cc3)C(=O)C2C1 (configuration not stated)	inconclusive: 28.2 µM [activator, single point]	
OC(COc1ccc(Cl)cc1)CN1CCN(c2ccccn2)CC1 (configuration not stated)	inactive	
CC1CC(C)CN(CCOc2ccc(Cl)cc2Cl)C1 (configuration not stated)	inactive	
COc1ccc(Cl)cc1NC(=O)CCNC(=O)Cn1ccc2ccccc2c1=O	inconclusive: 15.8 µM [activator, partial curve, poor fit]	
CC(/C=N/NC(=O)C(O)c1ccccc1)=C\c1ccccc1 (configuration not stated)	inconclusive: 5.01 µM [activator, single point]	
Cc1nnc(SCC(=O)NCCc2ccccc2)s1	inconclusive: 2.82 µM [activator, single point]	
Cc1ccc(NC(=O)CCl)c(C)c1	inconclusive: 5.01 µM [activator, single point]	
C=CCn1c(SCC(=O)c2ccc(Br)cc2)nnc1C(CC(C)C)NC(=O)c1cccs1 (configuration not stated)		inactive: -10.9% [at 7.66 µM]
COc1c(Cl)cc(Cl)cc1C(=O)Nc1ccc(NC(=O)c2cccs2)cc1	inactive	
COc1ccc(Cl)cc1C(=O)NC(=S)Nc1nc(C)cc(C)n1	inconclusive: 22.4 µM [activator, single point]	
Cc1cc(=O)c(C(=O)O)cn1Nc1ccc(F)cc1	inactive	
COc1ccc(CN(Cc2ccc(C(=O)O)cc2)C(=S)Nc2cc(C)cc(C)c2)cc1OC	inconclusive: 11.2 µM [activator, partial curve, poor fit]	
CC1CCCN(CCC(=O)Nc2ccccc2)C1 (configuration not stated)	inconclusive: 17.8 µM [activator, single point]	
Cc1cc(C)n2nc(C(=O)Nc3c(C)nn(Cc4ccc(F)cc4)c3C)cc2n1	inconclusive: 3.55 µM [activator, single point]	
NC(=S)NN=C1c2cc(OCCN3CCOCC3)ccc2-c2ccc(OCCN3CCOCC3)cc21	inactive	
C[C@H](NC(=O)c1cc2cc(Cl)ccc2n1C)C(=O)N[C@@H](Cc1ccccc1)C(=O)O	inconclusive: 2.82 µM [activator, single point]	
CC(=O)N1CCN(C(=O)c2ccc(-c3cccc(C(F)(F)F)c3)o2)CC1	inactive	
CN1CCN(S(=O)(=O)c2ccc(N3CCN(C(c4ccccc4)c4ccccc4)CC3)nc2)CC1	inconclusive: 5.01 µM [activator, single point]	
COc1ccc([N+](=O)[O-])cc1NS(=O)(=O)c1cccc(C(=O)O)c1	inactive	
CC(Cc1n[nH]c(=S)n1N)c1ccccc1 (configuration not stated)	inconclusive: 28.2 µM [activator, single point]	
Cc1c(C(C)NC(=O)c2ccc3nc(Cc4ccccc4F)oc3c2)cnn1C (configuration not stated)	inconclusive: 2.82 µM [activator, single point]	
CCN1C(=O)CC(c2ccco2)Sc2ccccc21 (configuration not stated)	inconclusive: 25.1 µM [activator, single point]	
O=C1COc2ccc(S(=O)(=O)CCC(=O)NC3CCCCC3)cc2N1	inconclusive: 3.98 µM [activator, single point]	
